Reference: PubChem BioAssay AID1259415 (National Center for Advancing Translational Sciences (NCATS), 2018)
Several values for one entry are separate records, joined by “and”; a condition that tells them apart may be missing. Equal values may be shown once. Hit rate of the full screen: of about 410,000 compounds, about 18,000 (4.4%) were called active. The shares of active, inactive and inconclusive entries below differ from those in the screen. Rule as the data show it: active = activity change below about -60%; inconclusive = no clear call, values can overlap the other calls; inactive = above about -39%. Some compounds were tested as several samples or in several runs, with calls that do not always agree.

Test: qHTS Assay for inhibitors of the human cytomegalovirus (HCMV)
Details: HFF cells, HCMV-luciferase reporter, 72 h; at 57.5 µM; hits give low values
Procedure, shortened: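 Human foreskin fibroblasts infected with luciferase-reporter HCMV at MOI 1 PFU/cell, compounds at two doses. Luciferase measured 72 h post infection; normalized to buffer-only basal and Salinomycin (10uM) controls.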
% is scaled to controls: 0 for no effect and ±100 for the full control effect.

Structure (SMILES)	activity change, negative = inhibition
Cc1ccc(S(=O)(=O)NC(N)=NCCc2ccc(Cl)cc2)cc1	inconclusive: -49.4%
COc1ccc(CC(=O)Nc2nc(-c3ccc(F)c(F)c3)cs2)cc1	inconclusive: -47.4%
Cc1ccccc1S(=O)(=O)Cc1ccc(C(=O)N2CC(C)CC(C)C2)o1 (configuration not stated)	inconclusive: -53.1%
CCc1ccccc1N1C(=O)N(C)c2ccccc2S1(=O)=O	inactive: -10.5%
COc1ccccc1NC(=O)Nc1ccc2c(c1)OCCO2	inactive: 52.8%
Cc1ccc(S(=O)(=O)N2CCN(C(=O)Cn3c(=O)cnc4ccccc43)CC2)c(C)c1	inconclusive: -42.3%
Cc1ccc(-c2nc(CNC(=O)c3ccco3)cs2)cc1	inactive: -38.4%
CCOc1cc(CNCCO)ccc1OCC(=O)NC(C)(C)C	inactive: -17.2%
CC1CN(CC(O)COc2ccc(C#N)cc2)CCN1CC(O)COc1ccc(C#N)cc1 (configuration not stated)	inactive: -4.3%
Nc1nnc(-c2ccc(F)cc2)s1	inactive: -4.92%
COc1ccc(/C=N/NC(=O)CCn2cnc3ccccc32)cc1	inactive: -1.29%
COc1ccc(-c2nc(S(=O)(=O)c3ccccc3)c(NCCCN3CCOCC3)o2)cc1	inconclusive: -56.2%
CCC(=O)N1c2ccccc2CC1C(=O)NCCc1ccc(Cl)cc1 (configuration not stated)	inactive: 10.6%
Cc1cccc(N2CCN(C(=O)c3ccc(CNc4c(N5CCC(C)CC5)c(=O)c4=O)cc3)CC2C)c1 (configuration not stated)	active: -60.5%
CC(C)c1ccc(S(=O)(=O)c2cnc(SCC(=O)Nc3ccc(F)cc3F)nc2N)cc1	inconclusive: -49.6%
COc1ccc2nc3cc(Cl)ccc3c(Nc3cc(CN4CCCC4)c(O)c(CN4CCCC4)c3)c2n1	active: -100%
O=C1C2CCCN2C(c2cccc(Cl)c2)N1c1ccccn1 (configuration not stated)	inactive: 8.28%
O=C(NCc1ccccc1Cl)C1CCN(c2ncnc3c2nc2n3CCCCC2)CC1	active: -68.9%
CCN1C(=O)C(CC(=O)Nc2ccccc2)N(Cc2ccccn2)C1=S (configuration not stated)	inconclusive: -44.3%
O=C(Nc1cnn(C23CC4CC(CC(C4)C2)C3)c1)c1cc(-c2ccccc2)on1	inconclusive: -43.8%
CCC(Cc1ccccc1)NC(=O)Cn1ncc2c3ccccc3n(Cc3ccc(F)cc3)c2c1=O (configuration not stated)	inconclusive: -55.9%
O=C(c1ccc(Cl)c(S(=O)(=O)N2CCOCC2)c1)N1CCN(Cc2ccccc2)CC1	inconclusive: -57.4%

Structure (SMILES)	activity change, negative = inhibition
Cc1ccc(-c2nnc(N3CCCCC3)c3ccccc23)cc1S(=O)(=O)N(C)C	inconclusive: -41.4%
Cc1cc(N2CCN(c3ccccc3)CC2)n2ncnc2n1	inconclusive: -56.8%
COCc1cc(C)n(CC(=O)Nc2cccc(C(C)=O)c2)c(=O)c1C#N	inactive: 0.426%
Cc1ccc(Oc2ncccc2C(=O)NC2CCSC2=O)cc1 (configuration not stated)	inconclusive: -47.5%
Cc1ccc(-c2n[nH]c3c2C(c2cccs2)N(c2ccc(Cl)cc2)C3=O)cc1 (configuration not stated)	active: -105%
Cn1c(=O)[nH]c(NC2CCCCC2)c(N=O)c1=O	inconclusive: -42.9%
CC(OC(=O)c1c[nH]c2ccccc12)C(=O)N1CCCC1 (configuration not stated)	inconclusive: -57.9%
CCOC(=O)c1oc2ccc(S(=O)(=O)n3nc(-c4ccccc4)cc3N)cc2c1C	inactive: -0.308%
CCN(CC)S(=O)(=O)c1ccc(-c2nnc(SCC(C)=O)o2)cc1	inactive: -4.35%
CCCOc1cccc(C2c3c(oc4cc(C)c(C)cc4c3=O)C(=O)N2CCCN2CCOCC2)c1 (configuration not stated)	inconclusive: -42.3%
COC(C(=O)Nc1ccnn1C1CCN(C(=O)c2cccc(F)c2)CC1)c1ccccc1 (configuration not stated)	inconclusive: -51.2%
Cc1ccc(C(=O)Nc2cccc(C(F)(F)F)c2)cc1NC(=O)c1cnnc2ccccc12	inconclusive: -41.7% and inconclusive: -58%
Cc1n[nH]c(C)c1N=Nc1cc(Cl)ccc1Cl	inconclusive: -40.9%
COc1ccc(N(C(=O)COc2ccccc2)C2C=CS(=O)(=O)C2)c(OC)c1 (configuration not stated)	inconclusive: -45.8%
CCc1ccc(CCC(=O)Nc2ncc(Cc3ccccc3Cl)s2)o1	active: -60.8%
Cc1ccc(NC(=O)C2CCC(CNC(=O)[C@@H]3Cc4ccccc4CN3)CC2)c(C)c1 (some centres not stated)	inactive: 19.4%
CN=c1scc(-c2cccs2)n1/N=C/c1ccc(O)c(O)c1O	inactive: 12%
O=S(=O)(Cc1ccccc1Cl)Nc1ccccn1	inactive: -12.7%
O=C(NCc1ccncc1)c1nc(-c2ccc(C(F)(F)F)cc2)no1	active: -79.1%
CC1Cc2ccccc2N1S(=O)(=O)c1cccc(C(=O)NCc2ccco2)c1 (configuration not stated)	inconclusive: -53.1%
O=C(CN1CCN(CC(=O)Nc2cccc(F)c2)CC1)NCC1(N2CCOCC2)CCCCC1	inactive: -18.7%
O=C(C1CCN(Cc2ccc(Cl)cc2)CC1)N1CCN(Cc2ccc3c(c2)OCO3)CC1	active: -63%

Structure (SMILES)	activity change, negative = inhibition
O=C(Nc1cccc([N+](=O)[O-])c1)C1C2CCCCC21 (configuration not stated)	inconclusive: -45.4%
CC(=O)NC1(C(F)(F)F)NC(=O)N(CCc2ccccc2)C1=O (configuration not stated)	inconclusive: -45.1%
CCOc1ccc(CCNC(=O)c2cc3c(-c4ccccc4F)nn(C)c3s2)cc1OCC	active: -65.2%
COc1ccc(Cl)cc1NC(=O)C(C)OC(=O)C1=NNC(=O)CC1 (configuration not stated)	inactive: -5.33%
CCOc1ccc(CCNC(=O)c2nnn(CC(=O)Nc3c(C)cc(C)cc3C)c2N)cc1OCC	inconclusive: -45%
CCOC(=O)CN1N=C(c2ccc(Cl)cc2)CCC1=O	inconclusive: -56.5%
COc1cc2c(c(OC)c1OC)-c1ccc(SC)c(=O)cc1C(NC(=O)C(F)(F)F)CC2 (configuration not stated)	active: -81.5%
Cc1ccccc1CNC(=O)CCSCc1cnn(-c2ccccc2)c1-n1cccc1	inconclusive: -46.4%
COc1ccccc1C1CCN(C(=O)c2ccc(C(C)(C)C)cc2)CC1	inconclusive: -45%
Cc1cccc2cc(CN(Cc3ccccc3)C(=O)c3cccc(F)c3)c(Cl)nc12	inactive: 30%
Cc1nnc(NC(=O)CSc2nnc3ncccn23)s1	inconclusive: -45.5%
C/C(=N\NC(=O)c1ccc(-c2ccccc2)cc1)c1ccco1	inconclusive: -58.6%
COc1ccc([N+](=O)[O-])cc1NC(=O)c1ccc(N2C(=O)CCC2=O)cc1	inconclusive: -47.6%
CC(=O)OC(C)C[N+](C)(C)C (configuration not stated)	inconclusive: -44.6%
CCOC(=O)N1CCC(N2CCN(C3CCCC3)C(CCO)C2)CC1 (configuration not stated)	inconclusive: -41.4%
CCOC(=O)c1c(-c2ccccc2)oc2cc(Br)c(O)c(C=O)c12	inconclusive: -50%
O=C(Nc1ccc(S(=O)(=O)N2CCCC2)cc1)c1cccs1	inconclusive: -46.4%
Cc1ccccc1CC1(CO)CCCN(C(=O)c2ccccc2N(C)C)C1 (configuration not stated)	inactive: -29.2%
O=C(NCc1ccc(F)cc1)c1ccc(N2CCc3ccccc32)c([N+](=O)[O-])c1	inconclusive: -54%
CC(=O)NC(CC(=O)NC1CCCc2ccccc21)c1ccccc1 (configuration not stated)	inconclusive: -43.3%
CCc1ccc(/C=C2\SC(=S)N(CCCC(=O)NC3=NCCS3)C2=O)cc1	active: -74.3%
Cc1nc2ccc(NC(=O)CCS(=O)(=O)c3ccc(Cl)cc3)cc2s1	inconclusive: -50.8%

Structure (SMILES)	activity change, negative = inhibition
Cc1ccccc1C(=O)c1cccn1CC(=O)NC(C)c1ccccc1 (configuration not stated)	inconclusive: -45.2%
O=C(NCc1ccccc1Cl)c1cccc(NC(=O)c2ccccc2)c1	inconclusive: -40.2%
COC(CNC(=O)[C@H](CSCc1ccccc1)N1Cc2ccccc2C1=O)OC	inconclusive: -40.6%
CCCCSc1nnc2c(n1)OC(c1ccc(C)s1)Nc1ccccc1-2 (configuration not stated)	inconclusive: -55.6%
CSc1cccc(NC(=O)/C=C/c2ccc(Cl)cc2)c1	inactive: -18.1%
COC(=O)C(CC(=O)O)NCc1ccco1 (configuration not stated)	inconclusive: -43.3%
CCOC(=O)C1(S(=O)(=O)c2ccc(Cl)cc2)CCN(Cc2ccccc2)CC1	active: -98.6%
CCCCOc1cccc(C(=O)Nc2ccc(NC(=O)c3cccs3)cc2)c1	active: -89.4%
CCOC(=O)Cc1c(C)nc2c(-c3cccc(Br)c3)cnn2c1C	active: -74.9%
CCC(CO)Oc1cc(NCc2ccccc2)c2ncn(C(C)C)c2c1 (configuration not stated)	inconclusive: -44.9%
CCCC(=O)N=c1sc2c(OC)ccc(OC)c2n1C	inconclusive: -43%
O=C(CNC(=O)Cc1ccccc1)NCc1cccs1	inactive: 12.8%
COc1ccc(NS(=O)(=O)c2cc(NC(=O)CCNC(C)=O)ccc2N2CCCCC2)cc1	inconclusive: -58.5%
CCOc1ccccc1NC(=O)c1ccc(OCC)c([N+](=O)[O-])c1	active: -65%
CCc1ccc(-c2nc(CN3CCC(C(=O)N4CCN(c5ccccc5)CC4)CC3)c(C)o2)cc1	inconclusive: -47.2%
CC(=O)C1=C(C)NC(SCc2cccc3ccccc23)=C(C#N)C1c1ccco1 (configuration not stated)	inconclusive: -47.9%
O=C(O)Cc1sc(NCCc2ccccc2)nc1-c1ccc(F)cc1	inconclusive: -53.4%
CCOC(=O)c1[nH]ncc1CN1CCC(Cc2ccccc2)(C(=O)OCC)CC1	inconclusive: -53.8%
CC(C)(C)c1ccc(OCCC(=O)Nc2cccc(S(=O)(=O)NC3=NCCCCC3)c2)cc1	active: -60.2%
C/C=C(\C)C(=O)Nc1cccc(C2=NOC3(C2)C[C@@H](C(N)=O)N(C(=O)/C(C)=C/C)C3)c1 (some centres not stated)	active: -67.6%
Cc1sc2ncnc(N3CCCC(C)C3)c2c1C (configuration not stated)	inconclusive: -58.2%

Quoted at random: two records from the list.
Structure (SMILES)	activity change, negative = inhibition
CC(=O)NC(CC(=O)NC1CCCc2ccccc21)c1ccccc1 (configuration not stated)	inconclusive: -43.3%
CCC(Cc1ccccc1)NC(=O)Cn1ncc2c3ccccc3n(Cc3ccc(F)cc3)c2c1=O (configuration not stated)	inconclusive: -55.9%

3 successive entries out of the list so far, quoted:
Structure (SMILES)	activity change, negative = inhibition
CCCCOc1cccc(C(=O)Nc2ccc(NC(=O)c3cccs3)cc2)c1	active: -89.4%
CCOC(=O)Cc1c(C)nc2c(-c3cccc(Br)c3)cnn2c1C	active: -74.9%
CCC(CO)Oc1cc(NCc2ccccc2)c2ncn(C(C)C)c2c1 (configuration not stated)	inconclusive: -44.9%
